No constants are given. Whether binding was seen depends on the method and setting. Some results given as binding are weak or reduced against the parent protein; the word gives no strength.
Experiments:
[1] = target: surface HSP90 on MDAMB453 breast cancer cells (human) (UniProt P07900); assay: immunofluorescence on unfixed, living MDAMB453 cells (FIG. 5A, 5C)
[2] = target: surface HSP90 on MDAMB453 breast cancer cells (human) (UniProt P07900); assay: immunofluorescence on MDAMB453 cells (FIG. 5A, 5C)
[3] = target: surface HSP90 on MDAMB453 breast cancer cells (human) (UniProt P07900); assay: summary of the immunofluorescence experiments
[4] = target: surface HSP90 on MDAMB453 breast cancer cells (human) (UniProt P07900); assay: immunofluorescence on MDAMB453 cells (FIG. 5A)
[5] = target: surface HSP90 on MDAMB453 breast cancer cells (human) (UniProt P07900); assay: immunofluorescence on unfixed MDAMB453 cells (FIG. 5A)

binding [1] | binding [2] | binding [3] | binding [4] | binding [5] | Binder
binds | binds | – | – | – | recombinant 4C5 (antibody, V domains shown) VL: ELVMTQSPSSMYASLGERVTITCKASQDINSYLSWFQQKPGKSPKTLIYRANRLVDGVPSRFSGSGSGQDYSLTINSLEYEDMGIYYCLQYDEFPRLTFGAGTRLELKR
binds | binds | binds | – | – | human-mouse chimeric 4C5 antibody (antibody, V domains shown) VL: ELVMTQSPSSMYASLGERVTITCKASQDINSYLSWFQQKPGKSPKTLIYRANRLVDGVPSRFSGSGSGQDYSLTINSLEYEDMGIYYCLQYDEFPRLTFGAGTRLELKR
– | – | – | binds | binds | monoclonal antibody (mAb) 4C5 (antibody, V domains shown) VL: ELVMTQSPSSMYASLGERVTITCKASQDINSYLSWFQQKPGKSPKTLIYRANRLVDGVPSRFSGSGSGQDYSLTINSLEYEDMGIYYCLQYDEFPRLTFGAGTRLELKR
